The other results are listed elsewhere or left out.
Legend:
Assay in all cases: log2 fold change, soluble protein after heating vs DMSO (PISA); higher = thermal stabilisation; K562 cells, 10 uM, 30 min; active = over 0.2 and 3.5 SD of the protein, either way, in both replicates (recomputed)
[1] = compound: NC(=O)Nc1cc(-c2cccc(F)c2)sc1C(=O)N[C@H]1CCCNC1
How it was run: (§1)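 Quantification of soluble protein used TMTpro 16plex LC-MS/MS, with channel sums equalised. Samples were the supernatant after 21,000xg for 90 min of pooled aliquots from K562 cells (2×10^6 cells/mL) treated with 10 μM compound for 30 min, heated for 3 min over 48°C-58°C, and extracted in PBS with 0.5% NP-40 at 4°C. Values, from duplicates, describe thermal stability against control samples on a log2 fold-change scale.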

Amino acid sequences for entries named in this document (tags omitted). A change or cut given only in a name is not applied to a line headed by its entry.
UniProt Q7Z4W1: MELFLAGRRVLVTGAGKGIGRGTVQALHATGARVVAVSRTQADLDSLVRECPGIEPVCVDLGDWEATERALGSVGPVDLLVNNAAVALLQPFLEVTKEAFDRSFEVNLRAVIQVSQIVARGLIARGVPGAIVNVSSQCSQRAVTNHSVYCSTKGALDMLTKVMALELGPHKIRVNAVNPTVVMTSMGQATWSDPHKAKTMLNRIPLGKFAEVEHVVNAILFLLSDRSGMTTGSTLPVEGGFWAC
UniProt Q9H2U1: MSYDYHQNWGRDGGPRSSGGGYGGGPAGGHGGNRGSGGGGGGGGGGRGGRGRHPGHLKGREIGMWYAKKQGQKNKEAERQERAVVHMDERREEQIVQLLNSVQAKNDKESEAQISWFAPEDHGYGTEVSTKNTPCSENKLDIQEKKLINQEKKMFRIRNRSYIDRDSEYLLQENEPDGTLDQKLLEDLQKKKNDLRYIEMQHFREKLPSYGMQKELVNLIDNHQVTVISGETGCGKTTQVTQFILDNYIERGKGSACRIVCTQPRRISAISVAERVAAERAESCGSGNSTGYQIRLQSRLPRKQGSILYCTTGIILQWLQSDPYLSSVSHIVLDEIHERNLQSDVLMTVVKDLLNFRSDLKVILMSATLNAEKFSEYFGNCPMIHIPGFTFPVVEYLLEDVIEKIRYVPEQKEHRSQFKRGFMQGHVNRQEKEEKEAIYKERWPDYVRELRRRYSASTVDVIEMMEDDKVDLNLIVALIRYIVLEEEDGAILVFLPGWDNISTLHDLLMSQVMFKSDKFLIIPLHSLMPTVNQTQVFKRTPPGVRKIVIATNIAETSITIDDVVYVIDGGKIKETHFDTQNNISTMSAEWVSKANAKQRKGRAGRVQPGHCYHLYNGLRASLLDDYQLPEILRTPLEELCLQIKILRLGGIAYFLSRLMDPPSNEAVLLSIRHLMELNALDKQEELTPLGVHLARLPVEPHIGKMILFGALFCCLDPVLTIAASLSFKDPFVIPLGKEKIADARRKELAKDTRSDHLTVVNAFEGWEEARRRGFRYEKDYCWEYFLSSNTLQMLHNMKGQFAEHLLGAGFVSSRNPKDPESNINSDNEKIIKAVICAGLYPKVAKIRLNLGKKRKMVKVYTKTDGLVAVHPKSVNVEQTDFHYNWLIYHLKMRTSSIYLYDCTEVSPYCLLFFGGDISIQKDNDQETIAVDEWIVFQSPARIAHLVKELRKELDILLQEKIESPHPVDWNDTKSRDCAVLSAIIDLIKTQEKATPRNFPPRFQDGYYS
UniProt Q7L014: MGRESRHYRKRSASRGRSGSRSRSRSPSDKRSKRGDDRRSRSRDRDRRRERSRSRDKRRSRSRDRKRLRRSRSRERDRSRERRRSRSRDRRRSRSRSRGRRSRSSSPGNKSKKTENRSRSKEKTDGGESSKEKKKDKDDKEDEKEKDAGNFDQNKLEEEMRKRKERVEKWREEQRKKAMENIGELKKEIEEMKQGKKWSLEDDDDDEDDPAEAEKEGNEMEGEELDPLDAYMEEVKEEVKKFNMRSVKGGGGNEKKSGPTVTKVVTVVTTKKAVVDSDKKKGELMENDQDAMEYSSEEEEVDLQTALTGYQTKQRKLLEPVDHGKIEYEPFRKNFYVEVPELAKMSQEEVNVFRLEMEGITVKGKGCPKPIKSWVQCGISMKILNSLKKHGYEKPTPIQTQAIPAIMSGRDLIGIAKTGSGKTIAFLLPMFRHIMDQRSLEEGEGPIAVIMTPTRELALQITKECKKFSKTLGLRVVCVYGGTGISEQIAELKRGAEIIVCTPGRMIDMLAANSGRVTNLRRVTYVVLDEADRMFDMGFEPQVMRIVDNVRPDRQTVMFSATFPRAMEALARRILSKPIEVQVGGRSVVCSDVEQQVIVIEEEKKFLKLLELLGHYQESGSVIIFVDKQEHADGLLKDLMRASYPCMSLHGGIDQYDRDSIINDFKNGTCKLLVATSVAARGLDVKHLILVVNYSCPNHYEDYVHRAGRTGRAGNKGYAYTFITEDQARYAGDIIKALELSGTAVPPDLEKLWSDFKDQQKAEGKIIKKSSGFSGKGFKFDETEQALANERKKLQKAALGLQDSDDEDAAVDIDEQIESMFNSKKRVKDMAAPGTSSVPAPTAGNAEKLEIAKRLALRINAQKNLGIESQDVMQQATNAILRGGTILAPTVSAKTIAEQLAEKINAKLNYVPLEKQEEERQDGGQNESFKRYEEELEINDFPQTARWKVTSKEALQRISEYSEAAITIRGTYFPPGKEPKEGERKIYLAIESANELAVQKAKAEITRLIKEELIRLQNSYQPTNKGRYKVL
UniProt Q92841: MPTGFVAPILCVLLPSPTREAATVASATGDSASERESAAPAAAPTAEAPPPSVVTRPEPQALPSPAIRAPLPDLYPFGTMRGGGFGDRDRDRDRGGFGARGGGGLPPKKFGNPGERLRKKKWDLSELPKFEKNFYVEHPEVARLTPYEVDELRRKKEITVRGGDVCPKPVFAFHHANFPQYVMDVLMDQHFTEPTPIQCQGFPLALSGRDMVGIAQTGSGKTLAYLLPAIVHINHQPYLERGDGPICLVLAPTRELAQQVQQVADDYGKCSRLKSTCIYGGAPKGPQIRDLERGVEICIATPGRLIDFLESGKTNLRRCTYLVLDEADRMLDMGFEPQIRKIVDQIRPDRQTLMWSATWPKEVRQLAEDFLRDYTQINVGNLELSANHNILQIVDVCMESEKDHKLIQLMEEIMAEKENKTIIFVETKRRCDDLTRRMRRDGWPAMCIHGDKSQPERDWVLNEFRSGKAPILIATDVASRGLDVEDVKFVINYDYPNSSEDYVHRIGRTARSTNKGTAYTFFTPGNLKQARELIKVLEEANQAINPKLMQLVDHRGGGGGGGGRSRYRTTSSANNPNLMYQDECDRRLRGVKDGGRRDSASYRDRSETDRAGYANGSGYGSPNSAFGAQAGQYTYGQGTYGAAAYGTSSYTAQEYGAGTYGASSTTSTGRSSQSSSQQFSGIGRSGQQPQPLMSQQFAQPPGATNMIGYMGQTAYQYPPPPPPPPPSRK
UniProt Q9Y2H0: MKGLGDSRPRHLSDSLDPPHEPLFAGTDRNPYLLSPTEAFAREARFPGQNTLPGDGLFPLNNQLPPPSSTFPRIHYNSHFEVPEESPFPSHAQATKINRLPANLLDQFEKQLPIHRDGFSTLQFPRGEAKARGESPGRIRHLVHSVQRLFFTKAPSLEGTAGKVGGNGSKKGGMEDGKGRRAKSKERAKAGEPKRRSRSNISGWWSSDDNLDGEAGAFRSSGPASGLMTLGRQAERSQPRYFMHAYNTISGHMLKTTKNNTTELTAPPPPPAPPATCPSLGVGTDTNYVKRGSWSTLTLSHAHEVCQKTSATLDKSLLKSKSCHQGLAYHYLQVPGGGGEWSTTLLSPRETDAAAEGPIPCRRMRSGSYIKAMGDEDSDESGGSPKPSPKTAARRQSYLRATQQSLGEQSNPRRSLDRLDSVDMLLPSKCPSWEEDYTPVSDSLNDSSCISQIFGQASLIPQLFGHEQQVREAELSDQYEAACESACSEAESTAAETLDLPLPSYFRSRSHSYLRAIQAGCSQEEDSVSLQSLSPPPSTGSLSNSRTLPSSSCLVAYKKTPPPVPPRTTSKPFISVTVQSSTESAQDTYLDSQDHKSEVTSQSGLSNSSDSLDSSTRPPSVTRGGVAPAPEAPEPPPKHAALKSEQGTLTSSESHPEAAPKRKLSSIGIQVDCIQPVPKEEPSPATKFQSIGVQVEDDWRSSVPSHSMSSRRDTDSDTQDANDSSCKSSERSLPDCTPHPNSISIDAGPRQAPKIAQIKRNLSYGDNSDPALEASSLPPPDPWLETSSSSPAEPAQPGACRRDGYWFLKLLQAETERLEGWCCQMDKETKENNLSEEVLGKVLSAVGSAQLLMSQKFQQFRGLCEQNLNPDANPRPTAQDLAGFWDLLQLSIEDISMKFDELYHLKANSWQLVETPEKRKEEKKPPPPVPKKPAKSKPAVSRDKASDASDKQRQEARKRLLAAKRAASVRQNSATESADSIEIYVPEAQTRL
UniProt Q9Y2L1: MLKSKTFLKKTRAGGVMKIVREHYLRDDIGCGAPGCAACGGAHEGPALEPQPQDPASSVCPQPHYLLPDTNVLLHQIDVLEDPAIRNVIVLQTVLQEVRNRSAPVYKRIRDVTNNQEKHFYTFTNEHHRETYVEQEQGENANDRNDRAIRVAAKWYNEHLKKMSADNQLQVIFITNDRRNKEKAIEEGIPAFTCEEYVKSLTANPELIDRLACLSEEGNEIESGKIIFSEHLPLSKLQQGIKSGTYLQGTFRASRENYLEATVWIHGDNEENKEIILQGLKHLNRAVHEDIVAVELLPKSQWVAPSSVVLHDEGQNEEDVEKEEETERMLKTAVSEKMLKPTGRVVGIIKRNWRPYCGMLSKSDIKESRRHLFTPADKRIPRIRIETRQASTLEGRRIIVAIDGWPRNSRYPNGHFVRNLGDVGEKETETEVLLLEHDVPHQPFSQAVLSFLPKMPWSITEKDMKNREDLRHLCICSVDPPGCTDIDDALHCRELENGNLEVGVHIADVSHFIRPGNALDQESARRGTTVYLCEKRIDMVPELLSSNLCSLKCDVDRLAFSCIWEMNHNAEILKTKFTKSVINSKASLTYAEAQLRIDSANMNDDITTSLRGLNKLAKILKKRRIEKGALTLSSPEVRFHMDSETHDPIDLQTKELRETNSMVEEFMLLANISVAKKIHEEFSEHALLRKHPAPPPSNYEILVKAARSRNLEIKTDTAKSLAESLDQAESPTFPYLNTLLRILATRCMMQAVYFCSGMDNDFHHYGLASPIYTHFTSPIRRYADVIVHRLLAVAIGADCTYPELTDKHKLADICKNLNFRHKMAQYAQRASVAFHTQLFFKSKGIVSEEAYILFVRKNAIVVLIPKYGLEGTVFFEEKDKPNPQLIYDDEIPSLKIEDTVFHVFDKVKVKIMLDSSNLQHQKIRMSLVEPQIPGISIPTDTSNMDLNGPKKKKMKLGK
UniProt Q9Y6V7: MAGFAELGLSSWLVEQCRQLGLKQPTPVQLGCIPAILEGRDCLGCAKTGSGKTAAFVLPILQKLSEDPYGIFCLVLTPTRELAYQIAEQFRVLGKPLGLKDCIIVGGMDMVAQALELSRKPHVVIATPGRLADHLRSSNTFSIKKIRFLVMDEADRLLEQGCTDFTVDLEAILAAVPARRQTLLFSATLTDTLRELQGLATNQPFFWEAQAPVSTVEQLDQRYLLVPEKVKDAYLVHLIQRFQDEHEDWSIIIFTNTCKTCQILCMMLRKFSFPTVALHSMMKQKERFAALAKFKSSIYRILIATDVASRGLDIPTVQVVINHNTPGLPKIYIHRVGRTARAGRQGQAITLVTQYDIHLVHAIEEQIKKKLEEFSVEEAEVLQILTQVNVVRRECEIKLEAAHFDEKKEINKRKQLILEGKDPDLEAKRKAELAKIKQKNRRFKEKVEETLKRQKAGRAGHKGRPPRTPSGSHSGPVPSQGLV
UniProt O60231: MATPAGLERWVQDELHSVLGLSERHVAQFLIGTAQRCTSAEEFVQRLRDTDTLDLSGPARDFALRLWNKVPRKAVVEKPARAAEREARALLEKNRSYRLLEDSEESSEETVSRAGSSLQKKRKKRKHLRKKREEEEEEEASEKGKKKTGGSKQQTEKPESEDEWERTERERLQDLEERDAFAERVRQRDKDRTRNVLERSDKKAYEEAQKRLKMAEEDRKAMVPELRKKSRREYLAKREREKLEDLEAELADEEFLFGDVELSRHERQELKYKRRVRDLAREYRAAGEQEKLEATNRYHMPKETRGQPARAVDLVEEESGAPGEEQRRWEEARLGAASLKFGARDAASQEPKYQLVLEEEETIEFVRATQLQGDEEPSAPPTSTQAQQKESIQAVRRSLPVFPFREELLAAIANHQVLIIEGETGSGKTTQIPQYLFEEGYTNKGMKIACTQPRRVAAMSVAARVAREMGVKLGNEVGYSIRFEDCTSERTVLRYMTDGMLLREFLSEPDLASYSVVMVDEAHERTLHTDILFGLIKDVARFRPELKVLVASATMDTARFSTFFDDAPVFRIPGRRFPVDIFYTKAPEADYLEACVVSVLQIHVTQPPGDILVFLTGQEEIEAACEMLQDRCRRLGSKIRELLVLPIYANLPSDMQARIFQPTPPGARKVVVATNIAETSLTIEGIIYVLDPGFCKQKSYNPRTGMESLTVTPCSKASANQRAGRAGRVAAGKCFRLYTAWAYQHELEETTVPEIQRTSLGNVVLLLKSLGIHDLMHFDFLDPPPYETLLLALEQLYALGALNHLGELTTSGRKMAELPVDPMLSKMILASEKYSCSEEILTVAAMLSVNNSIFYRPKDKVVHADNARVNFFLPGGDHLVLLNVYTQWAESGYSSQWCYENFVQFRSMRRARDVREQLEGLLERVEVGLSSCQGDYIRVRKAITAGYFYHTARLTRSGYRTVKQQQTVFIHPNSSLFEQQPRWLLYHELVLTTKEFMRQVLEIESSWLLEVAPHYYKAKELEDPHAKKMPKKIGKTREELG

[2] = compound: NC(=O)c1cnc(N[C@@H]2CCCC[C@@H]2N)nc1Nc1cccc(-n2nccn2)c1
How it was run: as §1

[3] = compound: NC1(c2ccc(-c3nc4ccn5c(=O)[nH]nc5c4cc3-c3ccccc3)cc2)CCC1
How it was run: as §1

[4] = compound: NCC(=O)Nc1ccc(-n2nc(C(F)(F)F)cc2-c2ccc3c(ccc4ccccc43)c2)cc1
How it was run: as §1

entinostat = compound: Nc1ccccc1NC(=O)c1ccc(CNC(=O)OCc2cccnc2)cc1 [entinostat]
How it was run: as §1

vorinostat = compound: O=C(CCCCCCC(=O)Nc1ccccc1)NO [vorinostat]
How it was run: as §1

citarinostat = compound: O=C(CCCCCCNC(=O)c1cnc(N(c2ccccc2)c2ccccc2Cl)nc1)NO [citarinostat]
How it was run: as §1

silmitasertib = compound: O=C(O)c1ccc2c(c1)nc(Nc1cccc(Cl)c1)c1ccncc12 [silmitasertib]
How it was run: as §1

[5] = compound: O=C1NC(=O)C(c2cnc3ccccn23)=C1c1cn2c3c(cc(F)cc13)CN(C(=O)N1CCCCC1)CC2
How it was run: as §1

[6] = compound: c1cc(OCCN2CCCCC2)cc(-c2n[nH]c3ccc(-c4nnc[nH]4)cc23)c1
How it was run: as §1

Target | log2 fold change [1] | log2 fold change [2] | log2 fold change [3] | log2 fold change [4] | log2 fold change (entinostat) | log2 fold change (vorinostat) | log2 fold change (citarinostat) | log2 fold change (silmitasertib) | log2 fold change [5] | log2 fold change [6]
DMAC2L (UniProt Q99766) | inactive: 0.055 | inactive: -0.032 | inactive: -0.038 | inactive: -0.087 | inactive: 0.052 | inactive: -0.058 | inactive: 0.036 | inactive: -0.017 | inactive: -0.046 | inactive: 0.017
DHX29 (UniProt Q7Z478) | inactive: 0.066 | inactive: 0.009 | inactive: 0.111 | inactive: 0 | inactive: 0.008 | inactive: -0.015 | inactive: -0.045 | inactive: 0.099 | inactive: 0.156 | inactive: -0.067
DENR (UniProt O43583) | inactive: -0.001 | inactive: 0.004 | inactive: 0.033 | inactive: 0.024 | inactive: -0.013 | inactive: 0.003 | inactive: -0.053 | inactive: -0.073 | inactive: -0.004 | inactive: 0.001
DMD (UniProt P11532) | inactive: -0.009 | inactive: -0.025 | inactive: -0.05 | inactive: -0.019 | inactive: -0.01 | inactive: 0.05 | inactive: 0.034 | inactive: -0.011 | inactive: -0.089 | inactive: -0.021
DNAH11 (UniProt Q96DT5) | inactive: -0.099 | inactive: -0.064 | inactive: 0.346 | inactive: 0.044 | inactive: -0.032 | inactive: -0.24 | inactive: -0.213 | inactive: 0.197 | inactive: -0.098 | inactive: -0.09
DLST (UniProt P36957) | inactive: 0.04 | inactive: 0.025 | inactive: 0.04 | inactive: 0.071 | inactive: -0.033 | inactive: -0.029 | inactive: -0.049 | inactive: -0.006 | inactive: 0.015 | inactive: -0.069
DCXR (UniProt Q7Z4W1) | inactive: -0.005 | inactive: -0.034 | inactive: 0.021 | inactive: -0.001 | inactive: -0.049 | inactive: -0.034 | inactive: 0.029 | inactive: -0.002 | inactive: -0.019 | inactive: -0.015
DHX8 (UniProt Q14562) | inactive: -0.086 | inactive: -0.14 | inactive: 0.03 | inactive: -0.186 | inactive: -0.033 | inactive: -0.094 | inactive: -0.031 | inactive: 0.008 | inactive: -0.002 | inactive: -0.063
DMXL1 (UniProt Q9Y485) | inactive: -0.026 | inactive: -0.075 | inactive: -0.052 | inactive: -0.015 | inactive: 0.033 | inactive: 0.069 | inactive: 0.005 | inactive: 0.04 | inactive: -0.007 | inactive: -0.071
DHRS1 (UniProt Q96LJ7) | inactive: -0.118 | inactive: -0.047 | inactive: 0.184 | inactive: 0.095 | inactive: -0.082 | inactive: -0.098 | inactive: -0.237 | inactive: 0 | active: 0.834 | inactive: 0.291
DDX39A (UniProt O00148) | inactive: -0.067 | inactive: -0.04 | inactive: 0.057 | inactive: -0.042 | inactive: -0.003 | inactive: 0.048 | inactive: -0.006 | inactive: -0.011 | inactive: -0.107 | inactive: -0.233
DHX36 (UniProt Q9H2U1) | inactive: 0 | inactive: 0.025 | inactive: -0.028 | inactive: 0.056 | inactive: -0.003 | inactive: -0.028 | inactive: 0.014 | inactive: 0.009 | inactive: 0.11 | active: -0.283
DLD (UniProt P09622) | inactive: 0.003 | inactive: 0.007 | inactive: -0.088 | inactive: 0.033 | inactive: -0.013 | inactive: -0.02 | inactive: 0.011 | inactive: -0.042 | inactive: -0.004 | inactive: -0.093
DDX46 (UniProt Q7L014) | inactive: -0.185 | inactive: -0.087 | inactive: -0.178 | inactive: -0.197 | inactive: 0.095 | inactive: 0 | inactive: 0.103 | inactive: 0.018 | inactive: -0.243 | inactive: 0.084
DDX17 (UniProt Q92841) | inactive: -0.05 | inactive: 0.013 | inactive: -0.071 | inactive: -0.069 | inactive: 0.024 | inactive: 0.036 | inactive: 0.035 | inactive: -0.039 | inactive: -0.083 | inactive: -0.072
DDX27 (UniProt Q96GQ7) | inactive: 0.002 | inactive: 0.04 | inactive: 0.198 | inactive: 0.123 | inactive: -0.106 | inactive: -0.039 | inactive: -0.103 | inactive: 0.087 | inactive: 0.326 | inactive: -0.218
DDX5 (UniProt P17844) | inactive: -0.139 | inactive: -0.032 | inactive: -0.21 | inactive: -0.135 | inactive: 0.067 | inactive: 0.073 | inactive: 0.072 | inactive: -0.088 | inactive: -0.158 | inactive: -0.039
DLGAP4 (UniProt Q9Y2H0) | inactive: 0.028 | inactive: -0.037 | inactive: -0.006 | inactive: -0.01 | inactive: -0.046 | inactive: -0.039 | inactive: 0.052 | inactive: -0.024 | inactive: -0.059 | inactive: -0.097
DDAH2 (UniProt O95865) | inactive: -0.066 | inactive: -0.086 | inactive: 0.037 | inactive: -0.025 | inactive: 0.028 | inactive: -0.053 | inactive: 0.021 | inactive: -0.044 | inactive: -0.122 | inactive: -0.011
DIS3 (UniProt Q9Y2L1) | inactive: -0.053 | inactive: -0.052 | inactive: -0.181 | inactive: -0.083 | inactive: 0.104 | inactive: 0.096 | inactive: 0.117 | inactive: 0.014 | inactive: -0.069 | inactive: 0.058
DIP2A (UniProt Q14689) | inactive: -0.056 | inactive: 0.007 | inactive: -0.356 | inactive: 0.017 | inactive: 0.002 | inactive: 0.031 | inactive: 0.043 | inactive: 0.1 | inactive: -0.016 | inactive: 0.004
DIS3L2 (UniProt Q8IYB7) | inactive: -0.105 | inactive: 0.018 | inactive: -0.1 | inactive: 0.008 | inactive: -0.028 | inactive: -0.006 | inactive: 0.037 | inactive: 0.007 | inactive: -0.04 | inactive: -0.102
DDX21 (UniProt Q9NR30) | inactive: 0.078 | inactive: 0.123 | inactive: 0.332 | inactive: -0.015 | inactive: -0.009 | inactive: 0.037 | inactive: 0.04 | inactive: 0.071 | inactive: 0.137 | inactive: -0.106
DGUOK (UniProt Q16854) | inactive: 0.024 | inactive: 0.028 | inactive: 0.054 | inactive: -0.043 | inactive: -0.034 | inactive: -0.014 | inactive: 0.024 | inactive: -0.009 | inactive: -0.072 | inactive: -0.043
DHX15 (UniProt O43143) | inactive: 0.016 | inactive: 0.042 | inactive: 0.002 | inactive: 0.002 | inactive: -0.017 | inactive: 0.005 | inactive: -0.006 | inactive: 0 | inactive: 0.002 | inactive: -0.036
DES (UniProt P17661) | inactive: -0.01 | inactive: -0.1 | inactive: -0.055 | inactive: 0.034 | inactive: -0.016 | inactive: -0.05 | inactive: 0.006 | inactive: -0.014 | inactive: 0.058 | inactive: -0.1
DDX49 (UniProt Q9Y6V7) | inactive: -0.026 | inactive: 0.027 | inactive: 0.071 | inactive: 0.01 | inactive: -0.062 | inactive: -0.066 | inactive: -0.056 | inactive: 0.027 | inactive: 0.164 | inactive: -0.179
DHX16 (UniProt O60231) | inactive: 0.005 | inactive: 0.018 | inactive: -0.021 | inactive: -0.044 | inactive: 0.013 | inactive: 0.001 | inactive: 0.049 | inactive: -0.142 | inactive: -0.012 | inactive: -0.041
DDX19B (UniProt Q9UMR2) | inactive: 0.011 | inactive: -0.027 | inactive: -0.122 | inactive: 0.016 | inactive: 0.033 | inactive: 0.047 | inactive: 0.015 | inactive: -0.008 | inactive: 0.018 | inactive: 0.01
DHRS7B (UniProt Q6IAN0) | inactive: -0.099 | inactive: 0.083 | inactive: -0.012 | inactive: 0.117 | inactive: -0.014 | inactive: 0.16 | inactive: 0.01 | inactive: -0.05 | inactive: -0.113 | inactive: 0.077

An excerpt from above, showing only log2 fold change (vorinostat) and log2 fold change [4]:
Target	log2 fold change (vorinostat)	log2 fold change [4]
DHRS1 (UniProt Q96LJ7)	inactive: -0.098	inactive: 0.095
DDX39A (UniProt O00148)	inactive: 0.048	inactive: -0.042

Full records, quoted from the list. Values in the order: log2 fold change [1]	log2 fold change [2]	log2 fold change [3]	log2 fold change [4]	log2 fold change (entinostat)	log2 fold change (vorinostat)	log2 fold change (citarinostat)	log2 fold change (silmitasertib)	log2 fold change [5]	log2 fold change [6]
DDX49 (UniProt Q9Y6V7) as listed: inactive: -0.026	inactive: 0.027	inactive: 0.071	inactive: 0.01	inactive: -0.062	inactive: -0.066	inactive: -0.056	inactive: 0.027	inactive: 0.164	inactive: -0.179
DHX15 (UniProt O43143) as listed: inactive: 0.016	inactive: 0.042	inactive: 0.002	inactive: 0.002	inactive: -0.017	inactive: 0.005	inactive: -0.006	inactive: 0	inactive: 0.002	inactive: -0.036
